The results in this text go back to PMC12622526.

Sequences of proteins named here, by UniProt entry; tags and fusion partners are left off.
UniProt P60953: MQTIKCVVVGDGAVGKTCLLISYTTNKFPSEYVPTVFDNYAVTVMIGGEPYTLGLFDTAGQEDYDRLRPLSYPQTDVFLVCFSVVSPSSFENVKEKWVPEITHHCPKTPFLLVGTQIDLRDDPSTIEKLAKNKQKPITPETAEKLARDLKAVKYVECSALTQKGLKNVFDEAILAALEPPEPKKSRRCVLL
UniProt Q15811: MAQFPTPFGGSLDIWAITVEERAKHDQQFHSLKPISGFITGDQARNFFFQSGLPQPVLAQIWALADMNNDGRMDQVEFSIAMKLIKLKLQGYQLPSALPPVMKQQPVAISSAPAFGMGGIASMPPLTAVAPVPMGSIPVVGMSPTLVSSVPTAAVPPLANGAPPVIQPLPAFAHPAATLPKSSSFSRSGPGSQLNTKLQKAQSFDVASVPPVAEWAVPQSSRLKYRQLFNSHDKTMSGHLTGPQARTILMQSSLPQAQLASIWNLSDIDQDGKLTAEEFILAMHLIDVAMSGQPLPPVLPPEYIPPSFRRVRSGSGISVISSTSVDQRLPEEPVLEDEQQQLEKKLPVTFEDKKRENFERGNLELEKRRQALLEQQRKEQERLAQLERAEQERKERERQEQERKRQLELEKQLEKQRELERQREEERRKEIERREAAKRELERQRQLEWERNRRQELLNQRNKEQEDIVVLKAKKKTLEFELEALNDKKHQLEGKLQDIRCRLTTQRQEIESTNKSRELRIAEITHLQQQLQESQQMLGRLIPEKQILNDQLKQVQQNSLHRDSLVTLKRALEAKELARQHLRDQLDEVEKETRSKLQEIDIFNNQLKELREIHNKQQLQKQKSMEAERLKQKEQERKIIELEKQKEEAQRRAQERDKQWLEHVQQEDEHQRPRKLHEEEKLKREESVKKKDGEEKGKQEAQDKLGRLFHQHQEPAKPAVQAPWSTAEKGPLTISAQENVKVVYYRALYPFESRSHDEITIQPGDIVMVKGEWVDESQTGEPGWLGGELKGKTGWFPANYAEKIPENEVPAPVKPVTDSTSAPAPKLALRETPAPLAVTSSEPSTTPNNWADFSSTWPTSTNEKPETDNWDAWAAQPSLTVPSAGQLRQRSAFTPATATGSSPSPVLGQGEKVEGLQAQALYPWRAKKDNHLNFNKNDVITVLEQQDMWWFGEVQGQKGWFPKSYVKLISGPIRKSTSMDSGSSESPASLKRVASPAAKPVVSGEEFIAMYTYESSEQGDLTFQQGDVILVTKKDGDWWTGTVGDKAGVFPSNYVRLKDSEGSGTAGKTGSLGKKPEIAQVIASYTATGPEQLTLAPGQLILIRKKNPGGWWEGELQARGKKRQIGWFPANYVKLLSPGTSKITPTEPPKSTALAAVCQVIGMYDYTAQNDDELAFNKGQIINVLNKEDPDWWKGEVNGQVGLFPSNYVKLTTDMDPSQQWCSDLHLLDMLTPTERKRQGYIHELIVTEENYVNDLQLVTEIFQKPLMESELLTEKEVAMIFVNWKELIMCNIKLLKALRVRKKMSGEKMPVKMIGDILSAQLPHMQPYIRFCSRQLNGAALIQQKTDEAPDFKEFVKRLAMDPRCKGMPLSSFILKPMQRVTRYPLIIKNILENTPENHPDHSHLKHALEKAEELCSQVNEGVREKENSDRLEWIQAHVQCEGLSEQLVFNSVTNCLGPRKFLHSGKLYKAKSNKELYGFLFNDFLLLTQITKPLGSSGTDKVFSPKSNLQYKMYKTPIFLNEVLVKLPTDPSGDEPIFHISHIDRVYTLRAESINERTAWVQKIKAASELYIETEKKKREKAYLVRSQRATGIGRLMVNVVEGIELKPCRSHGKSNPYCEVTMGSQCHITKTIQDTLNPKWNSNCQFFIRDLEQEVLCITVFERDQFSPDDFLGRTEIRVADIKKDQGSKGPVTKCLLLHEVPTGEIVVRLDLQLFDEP

These are yes or no findings as the source states them, for the method shown. In cells and extracts the contact can be indirect. Some results given as binding are weak or reduced against the parent protein; the word gives no strength. For part of these data: Where a sequence is shown, tags or fusion partners need not be part of it.

Assay [1] has as its target CDC42, endogenous (human) (UniProt P60953). Briefly: co-IP; Co‐IP of CDC42 and ITSN1 in cells with COA4 overexpression or knockdown (Figure S10C).
In assay [2] the target is T1, scCOA4‐MYC (Saccharomyces cerevisiae‐derived COA4) (S. cerevisiae) (UniProt Q05809).
T1 sequence: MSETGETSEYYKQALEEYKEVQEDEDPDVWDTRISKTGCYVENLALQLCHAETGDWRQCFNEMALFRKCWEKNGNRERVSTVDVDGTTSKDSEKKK
The experiment in a line: proximity ligation; in situ PLA in A549 cells expressing scCOA4.

In assay [3] the target is COA4 (cytochrome c oxidase assembly factor 4), endogenous (human) (UniProt Q9NYJ1). The experiment in a line: co-IP; endogenous Co‐IP in A549 and H23 cells.
Assay [4] shares this target. Briefly: proximity ligation; in situ Duolink PLA (Sigma–Aldrich DUO92101) in A549, 293T and H23 cells.
Assay [5] concerns the target T1, scCOA4‐MYC (Saccharomyces cerevisiae‐derived COA4) (S. cerevisiae). The experiment in a line: co-IP; IP from A549 cells transfected with scCOA4‐MYC, blot for CDC42.
Assay [6] addresses Flag‐COA4 (human cytochrome c oxidase assembly factor 4), transfected in 293T cells (human) (UniProt Q9NYJ1). Briefly: co-IP; 293T cells co‐transfected with Flag‐COA4 and HA‐CDC42; Pierce IP Lysis Buffer with protease and phosphatase inhibitors.

Regarding ITSN1 (from UniProt Q15811 1-1721), the binding result in assay [1] is on record as “binds”.
With “CDC42, endogenous (from UniProt P60953 1-191)”, the binding result in assay [2], in assay [3], in assay [4] and in assay [5] was “binds” each time.
Consider HA‐CDC42 (from UniProt P60953 1-191), for which the binding result in assay [6] is reported as “binds”.
